The results in this text go back to PubChem BioAssay AID2685 (National Center for Advancing Translational Sciences (NCATS), 2010).

This test is described as follows: qHTS Assay for Lipid Storage Modulators in Drosophila S3 Cells.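 For cell number change: cells counted by Cell Tracker Red CMTPX staining in the red channel.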 The settings on record: BODIPY lipid droplet fluorescence, 18-24 h; for cell number change: measured here: cell count max response, cells fed with added oleic acid. In outline:
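Drosophila S3 cells loaded with oleic acid (400 uM, as added) and compounds at several concentrations; lipid droplets imaged by 488-nm laser-scanning cytometry, 500–530 nm intensity and object ratio to cell channel. Percent activity normalized to 20 uM Triacsin C.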
(Quantitative high-throughput screening tests each substance at several concentrations.)

Setting [1] is: measured here: cell number channel AC50, cells fed with added oleic acid.
Where [2] appears, read: measured here: lipid fluorescence (Fed channel) AC50, cells fed with added oleic acid.

Some of the results follow. Further columns of the screen follow, without active or inactive calls. The list favours compounds with an active or inconclusive main result. The note in brackets gives the kind of curve behind each potency; many fits are weak.

As a reminder, the AC50 is the concentration giving half of the maximal activity seen. Read a low AC50 as activity at low concentration. As for `O=C(CSc1nnc(-c2cccs2)o1)OCc1ccccc1`, the cell number change was -35.8%. For the same compound, the AC50 under setting [1] is 8200 nM [falling, partial curve, poor fit].

As for `C[C@@H](CN1C(=O)C(=O)NC[C@@H]1Cc1ccc(O)cc1)NC(=O)Cc1ccccc1`, the cell number change worked out at 9.58%. In addition, the AC50 under setting [2] is 29100 nM [rising, single point].

Turning to `COc1cccc(N=Nc2ccc3cccnc3c2O)c1`, the cell number change is -60.7%. Moreover, under setting [1], the AC50 is 18400 nM [falling, single point]. In addition, under setting [2], the AC50 was 18400 nM [falling, single point].

`Cc1ccc(SCC(=O)NC(=O)NCCC(C)C)c(C)c1`: the cell number change worked out at 45.3%. Also, under setting [1], the AC50 was 4.61 nM [rising, full curve, poor fit]. For the same compound, the AC50 under setting [2] is 58 nM [rising, full curve, poor fit].

Take `CCOC(=O)CSc1nc2c(sc3ccccc32)c(=O)n1CCCN1CCOCC1`: the AC50 was 731 nM [rising, single point] under setting [1] and 326 nM [rising, partial curve, poor fit] under setting [2].

With `O=C(O)c1cccc(Nc2ccc3nonc3c2[N+](=O)[O-])c1`, the cell number change is -6.63%.

In the case of `CC(=O)Nc1ccc(C(=O)OCC(=O)Nc2ccc(N3CCOCC3)cc2)cc1`, under setting [2], the AC50 was 2310 nM [falling, partial curve].

For `COc1ccc(NC(=O)N(C2CCCCC2)C(C)c2cccnc2)c(OC)c1` (stereo unspecified), the cell number change was -5.35%. For the same compound, the AC50 under setting [1] is 5.8 nM [falling, full curve, poor fit].

Regarding `COc1ccccc1CNCC(=O)NCc1ccc(C)cc1`, the cell number change was found to be 3.6%. Moreover, under setting [1], the AC50 was 5.8 nM [falling, full curve, poor fit].

As for `CN1CCOc2ccc(S(=O)(=O)NCCc3ccc(Cl)cc3)cc21`, the cell number change was determined as 24.8%. Further, the AC50 under setting [2] was 29100 nM [falling, single point].

As for `Cc1cc(N2CCOCC2)nc(SCC(=O)c2ccc(Cl)cc2)n1`, the cell number change was found to be 8.69%. Under setting [2], the AC50 was 1640 nM [rising, partial curve].

On to `O=C(N/N=C/c1ccc(OC2CSC2)cc1)c1ccc(CN2CCOCC2)cc1`, for which the cell number change is -84%. The AC50 under setting [1] is 29100 nM [falling, single point]. The AC50 under setting [2] is 29100 nM [falling, single point].

On to `COc1ccc(OC)c(NC(=O)CCNS(=O)(=O)c2ccc3c(c2)c(=O)n(C)c(=O)n3C)c1`, for which the cell number change is 12.2%.

`CCCCSc1c(C)c2cc3c(cc2[nH]c1=O)OCO3`: the cell number change was found to be 80.5%. The AC50 under setting [1] is 29100 nM [rising, partial curve, poor fit]. In addition, under setting [2], the AC50 is 206 nM [rising, full curve, poor fit].

Consider `CCCn1nnc(NC(=O)COc2ccccc2Cl)n1`, for which the cell number change was -17.1%. The AC50 under setting [1] is 651 nM [falling, full curve, poor fit]. Further, under setting [2], the AC50 is 651 nM [falling, full curve, poor fit].

As to `Cc1onc(-c2ccccc2Cl)c1C(=O)N1CC(C)OC(C)C1` (stereo unspecified), the cell number change was 10.8%.

Turning to `CC(C)Cc1nc(N2CCN(C(=O)c3ccco3)CC2)c(C#N)c2c1CCCC2`, the cell number change is 2.09%. Moreover, the AC50 under setting [2] was 6510 nM [falling, partial curve, poor fit].

For the compound `CCOc1ccccc1CN1CCNC(=O)C1CC(=O)NC1CCCCCC1` (stereo unspecified), the cell number change was -26.4%. Also, the AC50 under setting [2] was 32600 nM [falling, single point].

Regarding `O=C(NCC1CCCO1)c1ccc(Cl)c(S(=O)(=O)N2CCOCC2)c1` (stereo unspecified), the cell number change is 15.1%. In addition, under setting [2], the AC50 is 206 nM [rising, full curve, poor fit].

In the case of `COc1cccc(C2SCC(=O)N2c2ccc(C)cc2)c1OC` (stereo unspecified), the AC50 under setting [2] is 2590 nM [rising, single point].

`CCCN(CC(=O)Nc1ccccc1OC)C(=O)c1cc2ccccc2o1`: the cell number change came out at 1.9%. Further, the half-maximal activity concentration (AC50) under setting [2] is 4110 nM [rising, single point].

Take `CC(=O)C1=C(O)C(=O)N(c2ccc(Br)cc2)C1c1cccc([N+](=O)[O-])c1` (stereo unspecified): the cell number change came to 11%. Moreover, the AC50 under setting [2] is 20600 nM [rising, single point].

Regarding `O=C(CN1C(=O)NC2(CCCCC2)C1=O)Nc1cc(C(F)(F)F)ccc1N1CCOCC1`, the cell number change is -18.6%.

For the compound `COc1ccccc1NC(=O)CCC(=O)OC(C)C(=O)c1ccccc1` (stereo unspecified), the cell number change amounted to 3.15%. In addition, the half-maximal activity concentration (AC50) under setting [2] was 29100 nM [rising, single point].

For `CC(C)NCC1CCc2cc(CO)c([N+](=O)[O-])cc2N1` (stereo unspecified), under setting [2], the AC50 is 2310 nM [falling, partial curve].

As to `COc1cc(NC(=O)c2cccnc2)ccc1NC(=O)c1ccccc1Cl`, the cell number change came to 6.3%.

As for `CC(/C=N\NC(=O)Cn1cncn1)=C/c1ccc(C(C)C)cc1`, the cell number change worked out at 23.5%. For the same compound, under setting [1], the AC50 was 1840 nM [rising, full curve, poor fit]. The AC50 under setting [2] is 18400 nM [rising, single point].

In the case of `CCN(Cc1ccncc1)Cc1cn(C)nc1-c1ccc(Oc2ccccc2)cc1`, the cell number change was -7.43%. Under setting [2], the AC50 is 517 nM [rising, full curve, poor fit].

Take `Cc1ccc(Nc2nc(N)nc(CSC(=S)N3CCN(c4ccccc4)CC3)n2)cc1`: the cell number change is 4.84%. For the same compound, the AC50 under setting [2] is 2060 nM [rising, partial curve, poor fit].

With `O=C(CCNC(=O)c1ccco1)Nc1ccc(Cl)cc1`, under setting [2], the AC50 is 5.17 nM [falling, full curve, poor fit].

Regarding `CCOC(=O)/C(=N\Nc1ccccc1)P(=O)(c1ccccc1)c1ccccc1`, the cell number change is -12.9%. Moreover, the AC50 under setting [1] was 366 nM [falling, partial curve, poor fit].

In the case of `CCCCn1c(N)c(N(CC(C)C)C(=O)c2cccc(S(=O)(=O)N3CC(C)OC(C)C3)c2)c(=O)[nH]c1=O` (stereo unspecified), the cell number change was -7.07%.

Regarding `Cc1ccc(OCCC(=O)OCC(=O)NC(=O)NCc2ccccc2)cc1`, the cell number change was -9.38%. In addition, under setting [2], the AC50 was 3260 nM [falling, partial curve].

As to `COc1ccc(C2CC(c3cccc(Cl)c3)n3nc(N)nc3N2)cc1` (stereo unspecified), under setting [2], the AC50 was 1840 nM [rising, single point].

Consider `COc1cccc(/C=N/Nc2ncc(C)c(=O)[nH]2)c1OC`, for which the cell number change is -11.1%.

Turning to `Cc1[nH]c2ccccc2c1C(=O)CN1C(=O)NC2(CC(C)CC(C)(C)C2)C1=O` (stereo unspecified), the cell number change is -29.9%. Moreover, the AC50 under setting [2] was 184 nM [falling, full curve, poor fit].

As for `COCc1nc2ccccc2n1Cc1ccc(Br)cc1`, the cell number change was found to be 46.7%. Also, under setting [1], the AC50 was 2060 nM [rising, partial curve].

Take `O=C(Nc1cccc(Cl)c1)Nc1cc(S(=O)(=O)N2CCCCC2)ccc1Cl`: the cell number change was -58.1%. Also, the half-maximal activity concentration (AC50) under setting [1] was 23100 nM [falling, single point]. The AC50 under setting [2] was 16400 nM [falling, single point].
